Measured data: PubChem BioAssay AID1159578 (Peter MacCallum Cancer Centre, 2015)

Test: 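Genome-wide hunt for genes controlling movement of lymphatic endothelial cells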 (primary screen)
System: human lymphatic endothelial cells
Reagents: siRNA pool against human genes, 40 nM
Time to read-out: 48 h after transfection
Measured: 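High-content imaging of dye-stained cells in a scratch assay measures filled wound area and nuclei per well; duplicate means given as ratio to mock and robust z-score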
Reading the numbers: migration robust z-score: higher = faster migration into the scratch; migration relative to mock: higher = more scratch area covered than mock; nuclei per well: higher = more cells in the well
Rule for the call: 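Migration changed when robust z exceeds 2 or falls below -2 and mean nuclei number is at least 3300; otherwise not called changed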
Calls: active = migration changed; inactive = no migration change, or too few cells
This is one part, drawn at random, of about 18,000 reagents. About 1,030 of them (5.7%) were called active. 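Inactive calls also include pools with fewer than 3300 nuclei, whose migration was not assessed.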 Raw values vary from plate to plate and are shown uncorrected. Entries without a mark were called inactive.

| Target gene | migration robust z-score | migration class with cell-count check | migration relative to mock | nuclei per well, duplicate mean |
| --- | --- | --- | --- | --- |
| HIGD1B (GeneID 51751) | -2.64 (active) | migration z below -2; enough cells | 0.19 | 5398 |
| TIAM1 (GeneID 7074) | -0.47 | migration z between -2 and 2; enough cells | 0.72 | 5887 |
| AKR7A2 (GeneID 8574) | -0.16 | migration z between -2 and 2; enough cells | 0.78 | 6430 |
| CA8 (GeneID 767) | -0.78 | migration z between -2 and 2; enough cells | 0.66 | 4786 |
| MVB12B (GeneID 89853) | 0.94 | migration z between -2 and 2; enough cells | 1.14 | 5242 |
| ZNF382 (GeneID 84911) | -0.08 | migration z between -2 and 2; enough cells | 0.86 | 6514 |
| MARCHF2 (GeneID 51257) | -0.38 | migration z between -2 and 2; enough cells | 0.73 | 4482 |
| ZNF706 (GeneID 51123) | -0.68 | migration z between -2 and 2; enough cells | 0.71 | 5956 |
| XRN2 (GeneID 22803) | 0.08 | migration z between -2 and 2; enough cells | 0.9 | 6693 |
| OR7C1 (GeneID 26664) | 0.75 | migration z between -2 and 2; enough cells | 1.08 | 5460 |
| DTX3L (GeneID 151636) | -0.16 | migration z between -2 and 2; enough cells | 0.77 | 6060 |
| CCDC92 (GeneID 80212) | -0.77 | migration z between -2 and 2; enough cells | 0.69 | 5924 |
| ZNF684 (GeneID 127396) | -2.15 (active) | migration z below -2; enough cells | 0.33 | 4928 |
| ZNF398 (GeneID 57541) | -0.44 | migration z between -2 and 2; enough cells | 0.72 | 4393 |
| DZIP1L (GeneID 199221) | -0.12 | migration z between -2 and 2; enough cells | 0.86 | 5988 |
| SELENOF (GeneID 9403) | 0.07 | migration z between -2 and 2; enough cells | 0.9 | 6128 |
| TMC6 (GeneID 11322) | 1.58 | migration z between -2 and 2; enough cells | 1.11 | 5565 |
| PPP1CB (GeneID 5500) | -0.9 | migration z between -2 and 2; enough cells | 0.63 | 5414 |
| MFN2 (GeneID 9927) | 0.55 | migration z between -2 and 2; enough cells | 0.91 | 4963 |
| H2AC16 (GeneID 8332) | -0.38 | migration z between -2 and 2; enough cells | 0.78 | 4190 |
| FAM180A (GeneID 389558) | 0.86 | migration z between -2 and 2; enough cells | 1.11 | 5839 |
| RAB3B (GeneID 5865) | -0.57 | migration z between -2 and 2; enough cells | 0.7 | 5057 |
| COQ5 (GeneID 84274) | -0.46 | migration z between -2 and 2; enough cells | 0.72 | 5424 |
| ZNFX1 (GeneID 57169) | 0.88 | migration z between -2 and 2; enough cells | 0.98 | 6036 |
| ITLN2 (GeneID 142683) | -1.02 | migration z between -2 and 2; enough cells | 0.62 | 5832 |
| CDH26 (GeneID 60437) | -0.5 | migration z between -2 and 2; enough cells | 0.76 | 5360 |
| LGALS9B (GeneID 284194) | 1.25 | migration z between -2 and 2; enough cells | 1.21 | 5928 |
| APBB3 (GeneID 10307) | 0 | migration z between -2 and 2; enough cells | 0.88 | 6040 |
| PARPBP (GeneID 55010) | 1.53 | migration z between -2 and 2; enough cells | 1.28 | 5452 |
| KANSL1 (GeneID 284058) | -2.4 (active) | migration z below -2; enough cells | 0.26 | 4422 |
| LRFN2 (GeneID 57497) | -0.78 | migration z between -2 and 2; enough cells | 0.69 | 4780 |
| ELAPOR2 (GeneID 222223) | 1.14 | migration z between -2 and 2; enough cells | 1.18 | 7514 |

Look-ups from the entries so far:
LGALS9B (GeneID 284194), migration robust z-score = 1.25
Entry of ZNF684 (GeneID 127396) under “nuclei per well, duplicate mean”: 4928 (active)
Under “migration robust z-score”, H2AC16 (GeneID 8332) has -0.38
Value of XRN2 (GeneID 22803) in “migration robust z-score”: 0.08
For “migration robust z-score”, MVB12B (GeneID 89853) shows 0.94

Continued:
| Target gene | migration robust z-score | migration class with cell-count check | migration relative to mock | nuclei per well, duplicate mean |
| --- | --- | --- | --- | --- |
| CCDC102B (GeneID 79839) | -0.38 | migration z between -2 and 2; enough cells | 0.78 | 5008 |
| OR14C36 (GeneID 127066) | -0.7 | migration z between -2 and 2; enough cells | 0.7 | 5740 |
| SCRT1 (GeneID 83482) | -1.9 | migration z between -2 and 2; enough cells | 0.39 | 4928 |
| OR6C76 (GeneID 390326) | -2.15 (active) | migration z below -2; enough cells | 0.32 | 4324 |
| RAX2 (GeneID 84839) | 0.76 | migration z between -2 and 2; enough cells | 1.08 | 4895 |
| C1QL1 (GeneID 10882) | 1.21 | migration z between -2 and 2; enough cells | 1.21 | 6278 |
| EIF3B (GeneID 8662) | 0.05 | migration z between -2 and 2; enough cells | 0.82 | 6548 |
| PRR27 (GeneID 401137) | 0.58 | migration z between -2 and 2; enough cells | 1.04 | 5724 |
| TNFSF14 (GeneID 8740) | 0.5 | migration z between -2 and 2; enough cells | 1.02 | 6670 |
| HSFX1 (GeneID 100506164) | -1.83 | migration z between -2 and 2; enough cells | 0.41 | 3802 |
| LRRC37B (GeneID 114659) | -1.49 | migration z between -2 and 2; enough cells | 0.5 | 6666 |
| MBNL3 (GeneID 55796) | -0.63 | migration z between -2 and 2; enough cells | 0.72 | 6832 |
| RPS11 (GeneID 6205) | -0.72 | migration z between -2 and 2; enough cells | 0.7 | 4524 |
| ATF7IP (GeneID 55729) | -0.61 | migration z between -2 and 2; enough cells | 0.73 | 5142 |
| SLC13A5 (GeneID 284111) | -3.37 (active) | migration z below -2; enough cells | 0.16 | 3906 |
| SCGN (GeneID 10590) | -0.56 | migration z between -2 and 2; enough cells | 0.74 | 7516 |
| SPTLC3 (GeneID 55304) | -0.34 | migration z between -2 and 2; enough cells | 0.8 | 6788 |
| FOXG1 (GeneID 2290) | -0.08 | migration z between -2 and 2; enough cells | 0.79 | 5683 |
| TCF7L1 (GeneID 83439) | -0.68 | migration z between -2 and 2; enough cells | 0.68 | 5158 |
| ABHD1 (GeneID 84696) | -0.31 | migration z between -2 and 2; enough cells | 0.74 | 6575 |
| CT47A9 (GeneID 728042) | -1.03 | migration z between -2 and 2; enough cells | 0.62 | 5572 |
| CCDC110 (GeneID 256309) | -0.16 | migration z between -2 and 2; enough cells | 0.84 | 4753 |
| TCEAL5 (GeneID 340543) | -0.62 | migration z between -2 and 2; enough cells | 0.73 | 5954 |
| ANXA13 (GeneID 312) | 0.37 | migration z between -2 and 2; enough cells | 0.98 | 7054 |
| FSIP1 (GeneID 161835) | 0.12 | migration z between -2 and 2; enough cells | 0.92 | 6450 |
